Data reported in PubChem BioAssay AID1508600 (Functional Genomics Laboratory (NCATS/FGL), 2020).
Hit rate of the full screen: of about 53,000 sequences, about 3,700 (7%) were called active.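 How the source made its calls: active means gene knockdowns whose robust z-score for IL-1 alpha signal is at least 2 or at most -2, so actives lie on both sides; inactive means the rest.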 Some of the results follow.

Test: Components of the Cytosolic LPS Sensing Pathway: Gene Identification via Genome-wide siRNA Screen;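 further: robust z of the log signal after scaling to non-targeting control siRNA wells of the plate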
Conditions: RAW264.7 macrophages, IL-1a HTRF, actives lie on both sides, screened at 100 nM (by protocol), cells primed 5 h with Pam3CSK4 first
Method in brief: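 Supernatant IL-1a by HTRF from RAW264.7 cells primed with Pam3CSK4 (5 hours) and transfected with LipidA (24 hour) after 48h siRNA knockdown at 100 nM; cell viability checked with CellTiter-Glo.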
For GGGAUGAGUCUUUAAAAUCTT against Fam228a, the z-score was inactive: 0.604.
In the case of GGUGUCAUCCUUUACAGUUTT against Ate1, the z-score is reported as inactive: 1.71.
In the case of GGCCUAAGGACAAUUAUUUTT against Lrrc19, the z-score is reported as inactive: 1.31.
With GCAUCGAAAAUCUUUCCAATT against Fibcd1 the z-score was inactive: 1.6.
For UCUACCAUCUUUGCCUACCTT against Olfr1182, the z-score was inactive: 0.475.
With GCGGAAUUGGAAAAUGCCGTT against Hbs1l the z-score was inactive: 0.283.
With GGCUAAAUGCCGAUGUACUTT against Gapvd1 the z-score was active: 2.08.
In the case of GGAACUCAGAGGUGAAAGCTT against Olfr70, the z-score is reported as inactive: 0.516.
In the case of CCUCCUCUCCUAAAUGCCUTT against Llcfc1, the z-score is reported as inactive: -1.23.
With GCCAGUCAUGCCUAUUUUCTT against Zmym6 the z-score was inactive: -0.528.
With “GCUAACACUGCGCUUGGAATT against 1700067K01Rik” the z-score was inactive: -1.39.
For GCUCGUACACAAUGAACACTT against Jam2, the z-score was inactive: -0.0132.
For GGAGAGGUAAAAAUGUUGUTT against Dnaja1, the z-score was inactive: 1.16.
In the case of GGCAUUCCUUAACUACUACTT against Lbp, the z-score is reported as inactive: -0.38.
With CCUAGAGCUUUUUAUAACATT against Septin7 the z-score was inactive: 1.06.
For GGAUGUUUGGACAAUCUAUTT against Itga4, the z-score was inactive: 0.634.
For GCUUGUAUGAGAUUACCUATT against Ttc1, the z-score was inactive: 1.19.
In the case of CCUUCUAUUCACUUUACCATT against Vmn1r87, the z-score is reported as inactive: -0.907.
For GCACAAGUAUUCUCAAAUGTT against Adcy8, the z-score was inactive: 0.593.
With GGCAUGAUCAGCACAUCACTT against Rpap1 the z-score was inactive: 0.578.
In the case of GGCCAGAUUACUCACCUAUTT against Birc3, the z-score is reported as inactive: -0.177.
In the case of GCCUAUGGCUGGUCAGUGUTT against Serpina3h, the z-score is reported as inactive: -0.514.
For CCCGGUACUAUAAUGCCAATT against Zmynd19, the z-score was inactive: -0.0599.
With GCGAACAACCACGUUUUUCTT against Ddx18 the z-score was inactive: 0.388.
With GGGAAGCAUGCAGAACAGCTT against Parg the z-score was inactive: -1.42.
In the case of GGGCUGUGGAAACAAUUUATT against Zpld1, the z-score is reported as active: 2.32.
For GGGAUUCUUUAAGAGCUCUTT against Prdx2, the z-score was inactive: 0.339.
For CCAUUCUUGGAUAGACAUATT against Pilrb1, the z-score was inactive: 0.0372.
In the case of GGAUUCUCUGUAGCUCAAATT against Magea5, the z-score is reported as inactive: -1.59.
With GGAGGUCACCCUCAAGAUGTT against Gjb4 the z-score was inactive: -0.608.
For GCCCUACGCUCGAAUGGAATT against Il17b, the z-score was inactive: -0.224.
For CGUGCCAAUUGAAAAAAACTT against Prkn, the z-score was inactive: 1.23.
With GGCAAUAACCACAUGAAAGTT against Sgtb the z-score was inactive: -0.43.
For CCUAAUUAUGUCAAGAUGATT against Foxm1, the z-score was inactive: -1.5.
For CCAAAGGUAUAUAGAGGUUTT against Plce1, the z-score was inactive: 1.41.
With GGCGAUGUGAUGGAUGUAGTT against Hira the z-score was inactive: -0.551.
For CGAAUUUGGCUUCAGAUGATT against Ppp2r1b, the z-score was inactive: -0.707.
For GGAAUACUAUGUUGAUUACTT against Lrrtm1, the z-score was inactive: 0.199.
In the case of GGACUCAUGAUUACAGCACTT against Tas2r134, the z-score is reported as inactive: -1.98.
For GGCAGAUCAACCUCAGCAATT against Snd1, the z-score was inactive: -1.68.
With GGAAUGAUGACUCCUCCUGTT against Klri2 the z-score was inactive: -0.293.
With GGCGAAAGUGCUUUUCCUGTT against Gbp8 the z-score was inactive: 1.03.
For “GGGCAUCGGAGCUUUCUUATT against 9530009G21Rik”, the z-score was inactive: -1.06.
With GCGGCAGUUUGAUUUUGGUTT against Wsb2 the z-score was inactive: 0.95.
In the case of GCAACCAACUAUGGACCGCTT against Sec24d, the z-score is reported as inactive: 0.87.
For GGGAUUUCUAUCAAGGGACTT against Klf16, the z-score was inactive: 0.0514.
In the case of “GGUUUUGUUAAAGAAGACGTT against 4833439L19Rik”, the z-score is reported as active: -2.25.
In the case of GGUAUUUUUCAUGGCUCUCTT against Olfr305, the z-score is reported as inactive: -0.0328.
With GGUAAAAUCACAGAAGAAGTT against Ddx55 the z-score was inactive: -0.595.
For CCGUCCAUUGCACUGGAUATT against Arntl2, the z-score was inactive: 0.024.
In the case of GGAGUAUUUACACUUCGACTT against H2-Ob, the z-score is reported as inactive: 0.713.
With GGACUAUUUCACAAACGCATT against Moxd1 the z-score was inactive: -1.2.
With GGUCCAUGAUUGAAACACGTT against Srpr the z-score was inactive: 0.798.
With GGGCUUGUUGUCCUACUUCTT against Olfr390 the z-score was inactive: 1.16.
For GCCUUGGCAGUAGUCUACUTT against Olfr429, the z-score was inactive: 0.378.
For GGGAUUGAACUUAGGUUUGTT against Ifitm10, the z-score was inactive: 1.45.
With GGUAGAGGAUGACUUCCUGTT against Ptpn5 the z-score was inactive: -1.37.
With GGGAUUCGACAGCAGAUCATT against H2-M10.4 the z-score was inactive: -1.37.
In the case of GCCAGUGAGUUUAUCAGCCTT against B4galnt3, the z-score is reported as inactive: 0.706.
With GGAACGAAUUUUAGAUGCATT against Rbbp8 the z-score was inactive: 1.14.
With “CGUAUCGCUGUUCAUGUUUTT against 5330438D12Rik” the z-score was inactive: -1.
With GGUCAUUGGUCGCUGGUCATT against Gzmm the z-score was inactive: -1.29.
In the case of GCAAGUGUCUCAAGUGCAGTT against Lhx3, the z-score is reported as inactive: 0.0347.
For GCAAGCAGAUCUGAUAUCATT against Pan3, the z-score was inactive: -1.88.
For GCAAAGUGGAUAUAGUGUCTT against Gprin1, the z-score was inactive: -0.217.
With GGUAGAUCCUAUCCUGUCUTT against Foxo4 the z-score was active: -2.57.
For GGCUCUCGUUAAAUACUGGTT against Pik3r4, the z-score was inactive: 0.363.
With GGUUCAGACCAUCUUGGAATT against Bag3 the z-score was inactive: -0.936.
With CCGAGUAUAUCUAUAAUAGTT against Ear14 the z-score was inactive: -0.607.
For “GGAAUUCCAAGUCAUUAUUTT against B230340J04Rik”, the z-score was inactive: 0.664.
With GCGCAUCAAUCUUGGAGGATT against Actr5 the z-score was inactive: 0.0634.
In the case of GCAACUAGUUAGUGCCUCCTT against Klf15, the z-score is reported as inactive: 1.45.
With GGAGAAAUAAAUGACUUGCTT against Zswim2 the z-score was inactive: -0.762.
With CCAUGGUUAUUAAUUAUGGTT against Slc24a4 the z-score was inactive: -0.624.
With “GCAGGUAUAAGAAGAGAAUTT against 1700128F08Rik” the z-score was inactive: 0.0947.
For GGGAGGUGCAGCUGAUGAATT against Tesk1, the z-score was inactive: -0.89.
In the case of GCAAAUCCACGCUAAAGCATT against Nxph1, the z-score is reported as inactive: -0.272.
With GGCCUAUUCAGCGAAGAUGTT against Ppp5c the z-score was inactive: -0.661.
For CCCAGACGAGGAUUUAUCCTT against Chd4, the z-score was inactive: -1.61.
With GCAGACAUUGCACAAACCCTT against Ankrd10 the z-score was inactive: 0.355.
In the case of CCAAAUUUAGCCAGGAUUATT against Ogn, the z-score is reported as inactive: 0.545.
With GCGCAUCGAAAAAUGGAUUTT against Rgl3 the z-score was inactive: 0.236.
In the case of CCAUCUCUUCGACAAUUAUTT against Chrne, the z-score is reported as inactive: -0.00578.
With GCGAAAGUGUUUGGCUGUATT against Csnka2ip the z-score was inactive: -0.739.
For GGAUACAUUAAUUGUUUGGTT against Ppp4r3b, the z-score was active: 2.55.
For CGAAACUCGUGAAUGAAAATT against Gtse1, the z-score was inactive: -0.0949.
In the case of GGUGUUAGAAAAGUUGAUUTT against Vegfd, the z-score is reported as inactive: 1.31.
For GGUUUUUAUUUAAAGCACGTT against Atp5a1, the z-score was inactive: 0.437.
With GCCUAUUACCUACACACAGTT against Rhof the z-score was inactive: -0.954.
With CCUCUUCGGGAAAAUUCUATT against Dao the z-score was inactive: -0.083.
With CCACUUCCACCAAUGUAUATT against Igsf9 the z-score was inactive: -1.44.
With CCACAAGCUCUUUGUUUGCTT against Habp2 the z-score was inactive: -0.654.
For AAACAUCACCAACAUCAGUTT against Olfr6, the z-score was inactive: -0.267.
In the case of GCUACCAUAUAUAUCUCACTT against Nox3, the z-score is reported as inactive: 1.53.
With GCCAGGACAAUCUGACUAUTT against Napsa the z-score was active: 3.48.
For GGCUGUAGACAAAGAAUAUTT against Ecel1, the z-score was inactive: -0.515.
In the case of GGAUACUUUGAGAACUACUTT against Sptssa, the z-score is reported as inactive: 0.542.
With GCCACCUUGUUUCUCGAACTT against Fam207a the z-score was inactive: 0.186.
In the case of CCCUGAACCCUAACAUCACTT against Tcirg1, the z-score is reported as inactive: 0.593.
With GGGUAAAAAGCUAGGUUUGTT against Acyp1 the z-score was inactive: 1.02.
In the case of “GGGAUUUUAGAAGCUAUGATT against A830018L16Rik”, the z-score is reported as inactive: -0.529.
For GGAUAGACAGAGAAAAGAUTT against Pcdhgb1, the z-score was inactive: 1.21.
With GGUGGACUGUGAAAUAAAATT against Tha1 the z-score was inactive: -0.967.
For CCCUGUUACUGGAUGCAGUTT against Olfr624, the z-score was inactive: -0.252.
In the case of GGGAGAGAUACGGAAAGAGTT against Tmem231, the z-score is reported as inactive: 0.397.
With CCUCAUCAUAUUCUCCUGATT against Olfr869 the z-score was inactive: -0.848.
